# Source: PubChem BioAssay AID540276 (National Center for Advancing Translational Sciences (NCATS), 2011)
# In all, about 300,000 compounds went through this assay and about 5,400 (1.8%) were called active. This list was built around the results that the source calls inconclusive (neither active nor inactive); the mix of calls is not that of the screen. The call rests on the fitted dose curve; tested in HEK293 cells. A potency beside an inconclusive call is a rough fit, not a confirmed value.
# Assay: qHTS for inhibitors of binding or entry into cells for Marburg Virus
# Settings: Marburg virus pseudotyped entry inhibition, cell reporter; series mostly up to 37.8 µM
# Potency means the concentration at half of the fitted maximal effect.
row,Structure (SMILES),Potency
1,Cc1nn(C)c(=O)n1-c1ccc(Oc2ccccc2)cc1,inactive
2,OC(CNCc1ccccc1)c1ccc(Cl)cc1 (stereo not given),"inconclusive: 35.5 µM [inhibitor, single point]"
3,CCOc1ccc(OCC)c(NC(=O)c2cc(-c3cccs3)nc3ccccc23)c1,inactive
4,CN(C)c1ccc(CNC23CN4CN(CN(C4)C2)C3)cc1,inactive
5,CCOC(=O)N1CC=C2C(C#N)=C(N)C(C#N)(C#N)[C@H](c3cccs3)C2C1 (stereo not given in full),"inconclusive: 35.5 µM [inhibitor, single point]"
6,COc1cc(/C=C/C(=O)OCC(=O)N2CCN(S(=O)(=O)c3ccc(C)cc3C)CC2)ccc1O,"inconclusive: 0.112 µM [inhibitor, full curve, poor fit]"
7,CCN(C(=O)COC(=O)c1c(-c2ccccc2)noc1C)C1CCS(=O)(=O)C1 (stereo not given),inactive
8,Cc1ccc(C(=O)OC(C)CN2CCN(C)CC2)cc1 (stereo not given),inactive
9,Cc1ccc(C2=NN(C(=O)CCl)C(c3cccs3)C2)o1 (stereo not given),"inconclusive: 10 µM [inhibitor, partial curve, poor fit]"
10,O=[N+]([O-])c1ccccc1N/N=C/c1cc2ccccc2nc1Cl,"inconclusive: 23.1 µM [inhibitor, single point]"
11,Cc1ccccc1C(=O)O/N=C(\N)c1cccc([N+](=O)[O-])c1,"inconclusive: 29.1 µM [inhibitor, single point]"
12,CC(C)N1C(=O)/C(=C/c2nc3ccccc3c(=O)n2-c2ccccc2)c2ccccc21,"inconclusive: 14.1 µM [inhibitor, partial curve, poor fit]"
13,Cn1c(N)c(C(=O)COC(=O)CC(NC(=O)c2ccccc2Cl)c2ccccc2)c(=O)n(C)c1=O (stereo not given),inactive
15,CCCSc1ncnc2c1c(-c1ccccc1)cn2-c1ccccc1OC,inactive
16,COCCn1c(SCc2ccc(C(=O)OC)o2)nc2cc(Cl)ccc2c1=O,"inconclusive: 23.1 µM [inhibitor, partial curve, poor fit]"
17,Cc1ccc(S(=O)(=O)N2CCOCC2)cc1NC(=O)CNCC1CCCCC1,inactive
18,CCc1cccc(C)c1NC(=O)Cn1ncc2c3ccccc3n(Cc3ccccc3)c2c1=O,"inconclusive: 35.5 µM [inhibitor, single point]"
19,CCC(=O)c1ccc(OCC(O)CN2CCN(C(c3ccccc3)c3ccccc3)CC2)cc1 (stereo not given),"inconclusive: 29.1 µM [inhibitor, single point]"
20,CCOC(=O)C1(CCCc2ccccc2)CCN(C(=O)[C@@H]2C[C@@H](C)NC(=S)N2)CC1,"inconclusive: 22.4 µM [inhibitor, single point]"
21,c1cncc(-c2nc(N3CCCCCC3)c3ccccc3n2)c1,"inconclusive: 3.16 µM [activator, single point]"
22,Cc1ccc(NC(=O)COC(=O)C2(C)CC2(Cl)Cl)cc1S(=O)(=O)N1CCOCC1 (stereo not given),"inconclusive: 3.98 µM [inhibitor, partial curve, poor fit]"
23,Cc1ccccc1C(=O)Nc1cccc(-c2cn3ccccc3n2)c1,"inconclusive: 25.1 µM [inhibitor, single point]"

row,Structure (SMILES),Potency
1,COc1ccc(C(=O)NC(=S)Nc2ccc(N3CCOCC3)c(Cl)c2)cc1[N+](=O)[O-],"inconclusive: 2.91 µM [activator, partial curve, poor fit]"
2,CSc1ccc(CCNC(=O)CCc2nnc3ccc(N4CCC5(CC4)OCCO5)nn23)cc1,"inconclusive: 0.562 µM [activator, full curve, poor fit]"
3,Cc1cccc(NC(=O)c2cnc3n(c2=O)CCS3)c1,inactive
4,Nc1nncn1C(=O)CCCOc1ccccc1,inactive
5,O=C(N/N=C/c1ccc(-c2ccccc2Cl)o1)c1ccccc1,"inconclusive: 35.5 µM [inhibitor, single point]"
6,COc1cccc(C(=O)OC2CCCN(C)C2)c1 (stereo not given),"inconclusive: 5.62 µM [activator, single point]"
7,CCCn1ncc2c(Nc3ccc(C)c(C)c3)ncnc21,inactive
8,CCn1c(C)nnc1SCC(=O)NC1CCCCCC1,inactive
9,O=S(=O)(c1cccs1)N1CCN(CC(O)COc2cccc(Br)c2)CC1 (stereo not given),"inconclusive: 6.51 µM [inhibitor, full curve, poor fit]"
10,O=C(c1cc2cc3ccc(Cl)cc3nc2o1)N1CCN(c2cccc(Cl)c2)CC1,inactive
11,CN(C)CCC1c2ccc(Cl)cc2CCc2cccnc21 (stereo not given) (tested in a mixture with another compound),"inconclusive: 22.4 µM [inhibitor, single point]"
12,O=C(NC(Cc1ccccc1)C(=O)O)/C(=C/c1ccco1)NC(=O)c1cccc(Br)c1 (stereo not given),"inconclusive: 3.98 µM [activator, full curve]"
13,S=c1[nH]c(-c2ccccc2)cn1/N=C/c1cccs1,inactive
14,CC(C)CC(=O)NC(Nc1ccccc1F)C(Cl)(Cl)Cl (stereo not given),inactive
15,CCOC(=O)N1CCN(Cc2nc(N)nc(Nc3ccc(Oc4ccccc4)cc3)n2)CC1,"inconclusive: 35.5 µM [inhibitor, partial curve, poor fit]"
16,Cc1sc2ncn(CC(=O)N3CCN(c4ccccc4)CC3)c(=O)c2c1S(=O)(=O)N1CCC(C)CC1,"inconclusive: 35.5 µM [inhibitor, single point]"
17,COc1ncnc2c1oc1nc(CC(C)C)c3c(c12)CC(C)(C)OC3,inactive
18,NS(=O)(=O)c1cccc(NC(=O)c2ccc3nc[nH]c3c2)c1,inactive
19,COC(=O)C(C)Oc1ccc(Cl)c(CN2OCC(C)(C)C2=O)c1 (stereo not given),inactive
20,O=C(O)c1ccc2c(c1)-c1nc3ccccc3n1C2=O,"inconclusive: 3.66 µM [inhibitor, partial curve, poor fit]"
21,Cc1c(CN(C)Cc2cn(C)nc2-c2ccccc2F)[nH]c2ccccc12,"inconclusive: 20 µM [inhibitor, partial curve, poor fit]"
22,CCc1ccc2occ(CC(=O)Nc3ccc(C)c(C)c3)c2c1,"inconclusive: 3.98 µM [inhibitor, full curve, poor fit]"

# Reformatted as tab-separated lines: entries from further up.
row	Structure (SMILES)	Potency
6	COc1cccc(C(=O)OC2CCCN(C)C2)c1 (stereo not given)	inconclusive: 5.62 µM [activator, single point]
7	CCCn1ncc2c(Nc3ccc(C)c(C)c3)ncnc21	inactive
8	CCn1c(C)nnc1SCC(=O)NC1CCCCCC1	inactive
9	O=S(=O)(c1cccs1)N1CCN(CC(O)COc2cccc(Br)c2)CC1 (stereo not given)	inconclusive: 6.51 µM [inhibitor, full curve, poor fit]
10	O=C(c1cc2cc3ccc(Cl)cc3nc2o1)N1CCN(c2cccc(Cl)c2)CC1	inactive
11	CN(C)CCC1c2ccc(Cl)cc2CCc2cccnc21 (stereo not given) (tested in a mixture with another compound)	inconclusive: 22.4 µM [inhibitor, single point]
12	O=C(NC(Cc1ccccc1)C(=O)O)/C(=C/c1ccco1)NC(=O)c1cccc(Br)c1 (stereo not given)	inconclusive: 3.98 µM [activator, full curve]
13	S=c1[nH]c(-c2ccccc2)cn1/N=C/c1cccs1	inactive
